# Assay results reported in article PMC3429460.
# Chains of the proteins cited; added tags and fusions are not shown. Lines headed by an entry give the natural chain unless they say otherwise; changes in a name come on top.
# UniProt P70605: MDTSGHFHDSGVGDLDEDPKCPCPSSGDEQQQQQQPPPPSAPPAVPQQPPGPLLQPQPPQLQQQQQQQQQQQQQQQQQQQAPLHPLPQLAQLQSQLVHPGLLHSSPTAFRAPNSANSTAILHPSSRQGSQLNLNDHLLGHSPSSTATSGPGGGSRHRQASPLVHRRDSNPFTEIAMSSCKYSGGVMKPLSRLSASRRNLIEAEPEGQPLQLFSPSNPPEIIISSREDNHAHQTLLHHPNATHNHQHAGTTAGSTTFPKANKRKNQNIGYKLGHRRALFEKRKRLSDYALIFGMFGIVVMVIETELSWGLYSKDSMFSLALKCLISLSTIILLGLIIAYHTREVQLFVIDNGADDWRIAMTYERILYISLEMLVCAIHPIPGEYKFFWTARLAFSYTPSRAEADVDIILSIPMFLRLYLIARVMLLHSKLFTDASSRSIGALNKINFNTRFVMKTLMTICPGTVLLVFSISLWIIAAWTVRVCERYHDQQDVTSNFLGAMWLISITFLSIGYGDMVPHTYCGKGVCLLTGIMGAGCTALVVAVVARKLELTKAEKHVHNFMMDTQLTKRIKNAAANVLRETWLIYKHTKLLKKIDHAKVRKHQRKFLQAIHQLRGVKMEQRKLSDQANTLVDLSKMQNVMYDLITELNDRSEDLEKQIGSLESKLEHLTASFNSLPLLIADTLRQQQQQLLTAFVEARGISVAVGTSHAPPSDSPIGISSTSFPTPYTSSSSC
# UniProt Q03135: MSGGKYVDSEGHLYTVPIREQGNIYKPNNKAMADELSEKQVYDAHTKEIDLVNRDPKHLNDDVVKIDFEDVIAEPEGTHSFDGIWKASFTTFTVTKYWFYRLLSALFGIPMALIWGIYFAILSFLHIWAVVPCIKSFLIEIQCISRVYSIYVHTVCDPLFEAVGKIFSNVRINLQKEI
# UniProt P20339: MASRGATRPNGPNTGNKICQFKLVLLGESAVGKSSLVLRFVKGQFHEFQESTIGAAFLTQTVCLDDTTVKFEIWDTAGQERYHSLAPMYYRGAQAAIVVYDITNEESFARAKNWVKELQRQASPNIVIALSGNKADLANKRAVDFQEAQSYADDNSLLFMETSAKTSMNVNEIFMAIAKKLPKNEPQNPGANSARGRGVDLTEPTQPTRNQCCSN
# These are yes or no findings as the source states them, for the method shown. In cells and extracts the contact can be indirect. Some results given as binding are weak or reduced against the parent protein; the word gives no strength.
# How the values were obtained:
# myc-tagged KCa2.3 = myc-tagged KCa2.3 (UniProt P70605); test: co-IP; HEK293 cells co-transfected; myc-KCa2.3 immunoprecipitated with anti-myc Ab (anti-V5 Ab as IgG control), protein G-agarose, immunoblot with anti-GFP Ab (dynamin II) or anti-Rab5 Ab
# GFP-tagged caveolin-1 = GFP-tagged caveolin-1 (UniProt Q03135); test: co-IP; HEK293 cells co-transfected; caveolin-1 immunoprecipitated with anti-GFP Ab (anti-V5 Ab as IgG control), protein G-agarose, immunoblot with anti-KCa2.3 Ab
binding (myc-tagged KCa2.3),binding (GFP-tagged caveolin-1),Substance
binds,,"DsRed-tagged Q79L Rab5 (GTP-bound, dominant active) (from UniProt P20339 1-215)"
,binds,"KCa2.3 (small conductance, Ca2+-activated K+ channel), construct of the caveolin-1 co-IP (from UniProt P70605 1-732)"
no binding,,"DsRed-tagged S34N Rab5 (GDP-bound, dominant negative) (from UniProt P20339 1-215)"
no binding,,DsRed-tagged WT Rab5 (from UniProt P20339 1-215)
